Source: PubChem BioAssay AID2685 (National Center for Advancing Translational Sciences (NCATS), 2010)
Some of the results follow. Further columns of the screen follow, without active or inactive calls. Compounds called inactive in the main read-out are mostly missing here. Potencies come from curve fits of mixed quality, noted in brackets.

Assay: qHTS Assay for Lipid Storage Modulators in Drosophila S3 Cells;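 as to cell number change: cells counted by Cell Tracker Red CMTPX staining in the red channel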
Details: BODIPY lipid droplet fluorescence, 18-24 h; for cell number change: measured here: cell count max response, cells fed with added oleic acid
Summary of the method: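 Drosophila S3 cells got compounds at several concentrations plus oleic acid (400 uM solution). Laser-scanning cytometry with 488 nm excitation read lipid droplets at 500-530 nm and cells at 575-640 nm. Percent activity was relative to 20 uM Triacsin C.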

[1] = measured here: cell number channel AC50, cells fed with added oleic acid
[2] = measured here: lipid fluorescence (Fed channel) AC50, cells fed with added oleic acid

Structure (SMILES) | cell number change [%] | AC50 [1] | AC50 [2]
O=c1oc2ccccc2c2c1C(c1ccc(Cl)cc1)Nc1ccc3ccccc3c1-2 (stereo not drawn) | 75.6 | 7.31 µM [rising, partial curve] | 29.1 µM [rising, single point]
COc1ccccc1C1c2[nH]c3ccccc3c2CCN1Cc1ccc(NC(C)=O)s1 (stereo not drawn) | 18.5 | 2.91 µM [rising, partial curve] | 
Cc1nc(C)n(CC(O)COc2ccc3cc(Br)ccc3c2)n1 (stereo not drawn) | 80.9 | 25.9 µM [rising, partial curve] | 0.00517 µM [rising, full curve, poor fit]
NC(=O)C1CCN(C(=O)CSc2nc3ccccc3[nH]2)CC1 | -63.9 | 1.84 µM [falling, partial curve, poor fit] | 23.1 µM [falling, partial curve]
Cc1c(-c2ccn[nH]2)cc(NC(=O)c2ccc(Cl)cc2)c(=O)n1N | 61 | 0.731 µM [rising, full curve] | 18.4 µM [rising, single point]
O=C(Cc1ccccc1)N/N=C/c1ccccc1OCc1ccc(Cl)cc1 | 11.8 |  | 18.4 µM [falling, single point]
Cc1[nH]nc2ncc(C(=O)c3cc(Cl)cc(Cl)c3O)cc12 |  |  | 2.91 µM [rising, partial curve]
Cc1ccc(NC(=S)N2CCCC(c3ccccc3)=N2)cc1 | 12.4 |  | 2.06 µM [rising, partial curve, poor fit]
COc1ccccc1NC(=O)C[n+]1ccccc1C | -13.5 |  | 
COc1ccc(C(OCC(O)CN2CCC(O)CC2)c2ccc(OC)cc2)cc1 (stereo not drawn) | 11.5 |  | 
CC1CC(C)CN(Cc2nc(N)nc(Nc3ccc4ccccc4c3)n2)C1 (stereo not drawn) |  | 0.411 µM [rising, single point] | 
COc1ccc(NC(=O)CN(C)C(=O)c2ccc(N3CCCCC3)c([N+](=O)[O-])c2)cc1 | -11.8 |  | 0.517 µM [falling, full curve]
Cc1ccc(C(=O)Nc2ccc3nccnc3c2)cc1 | -11.8 |  | 29.1 µM [rising, single point]
CC(Oc1cc2oc(=O)c3c(c2cc1Cl)CCC3)C(=O)NCCCN1CCCC1=O (stereo not drawn) |  |  | 0.13 µM [falling, full curve, poor fit]
CC1(C)CC2CC(C)(CN2c2ncnc3ccc(Br)cc23)C1 (stereo not drawn) | -47.4 | 20.6 µM [falling, single point] | 29.1 µM [falling, single point]
C[C@H](OC(=O)N1CCN(C(c2ccccc2)c2ccccc2)CC1)[C@@H]1O[C@@]2(C)CCC[C@H]1O2 | 9.24 |  | 25.9 µM [rising, single point]
CCOC(=O)c1sc(/N=C/c2ccc(O)cc2O)cc1C | 20.5 |  | 
Nc1ccc2c(c1)CC(=O)c1ccccc1S2 | -53.2 | 29.1 µM [falling, single point] | 2.31 µM [rising, partial curve, poor fit]
N/C(=N\NS(=O)(=O)c1ccccc1C(F)(F)F)c1ccccn1 | -37.2 | 16.4 µM [falling, single point] | 29.1 µM [falling, single point]
COc1ccc(CCNC(=O)C/C(C)=N/NC(=O)C2CCCCC2)cc1OC | -25.5 |  | 

Structure (SMILES) | cell number change [%] | AC50 [1] | AC50 [2]
CCOc1cc(NC(=S)NCC2CCCO2)c(OCC)cc1NC(=O)c1ccccc1 (stereo not drawn) |  | 0.092 µM [rising, full curve, poor fit] | 0.082 µM [rising, full curve, poor fit]
O=C(NCc1cccnc1)c1cc(Cl)ccc1[N+](=O)[O-] | 14.1 | 4.11 µM [falling, single point] | 
CN1CCC(=NNC(=O)CN(c2ccc([N+](=O)[O-])cc2)S(=O)(=O)c2ccccc2)CC1 | -35.5 | 23.1 µM [falling, single point] | 
CN(CCO)C(=O)C1CCN(c2ncc(C(F)(F)F)cc2Cl)CC1 | -10.5 | 0.00461 µM [falling, full curve, poor fit] | 
CCn1c(Oc2ccccc2C)nc2c1c(=O)n(C)c(=O)n2C | -6.67 |  | 
O=C(CCN1CCN(C/C=C/c2ccccc2)CC1)Nc1cccc(F)c1 | -54.3 |  | 0.411 µM [rising, single point]
COc1ccccc1C(=O)Nc1ccc(OCC(=O)N2CC(C)CC(C)C2)cc1 (stereo not drawn) | 21.9 |  | 29.1 µM [rising, single point]
Nc1[nH]c2cc([N+](=O)[O-])ccc2c1-c1ccccn1 | 29.3 |  | 
Cn1c(=O)c2c(nc(NCCO)n2C)n(C)c1=O | 1.95 |  | 29.1 µM [falling, single point]
Cc1cc(NC(=O)c2ccc(NC(=O)CC(C)C)cc2)no1 | 17.4 |  | 29.1 µM [rising, single point]
CCSc1ncc(Cl)c(C(=O)Nc2ccccc2F)n1 | -16.9 |  | 7.31 µM [falling, partial curve]
COC(=O)c1cc(S(=O)(=O)N2CCN(Cc3ccccc3)CC2)c[nH]1 | 3.13 |  | 20.6 µM [falling, single point]
O=C1CC(N2CCSCC2)C(=O)N1c1ccc(F)cc1 (stereo not drawn) | 17.4 |  | 
COC(=O)c1c(NC(=O)CC2NCCNC2=O)sc2c1CCCC2 (stereo not drawn) | 20.6 |  | 7.31 µM [rising, partial curve, poor fit]
CC/C(C)=N/NS(=O)(=O)c1ccc(C)c([N+](=O)[O-])c1 | 10.3 |  | 10.3 µM [rising, partial curve, poor fit]
CCCNC(=O)CN(C)C(=O)c1n[nH]c2ccccc12 | 5.42 | 6.51 µM [rising, single point] | 0.164 µM [falling, full curve, poor fit]
CCOC(=O)CC1C(=O)NCCN1S(=O)(=O)c1ccc(C)cc1 (stereo not drawn) | 22.5 |  | 0.231 µM [rising, full curve, poor fit]
COc1ccc(C2C(C(=O)OC3CCCCC3)=C(C)Nc3nnnn32)c(OC)c1OC (stereo not drawn) | -41.6 | 1.03 µM [falling, partial curve] | 0.651 µM [falling, full curve]
Cc1ccc2c(c1)N(CCC(=O)NCCN1CCOCC1)C(=O)CO2 | -14.3 |  | 
Cc1onc(-c2ccccc2)c1C(=O)OCC(=O)Nc1cc(S(=O)(=O)N2CCOCC2)ccc1Cl | 48.1 |  | 

Structure (SMILES) | cell number change [%] | AC50 [1] | AC50 [2]
O=C(Nc1cccc(F)c1)c1ccc(S(=O)(=O)N2CCCC2)cc1 | -25.2 |  | 32.6 µM [falling, single point]
COc1ccc(NC(=O)CC2C(=O)Nc3ccccc3N2CC(=O)N2CCCC2)cc1 (stereo not drawn) | 4.95 | 2.91 µM [falling, single point] | 6.51 µM [falling, partial curve, poor fit]
COc1ccc(/C=N/NC(=O)c2ccc(Br)o2)cc1Cn1cc([N+](=O)[O-])cn1 | 43.6 | 10.3 µM [rising, partial curve, poor fit] | 5.17 µM [rising, partial curve]
COc1ccc(/C=N/NC(=O)c2ccc(CN3C(=O)c4cccc5cccc3c45)cc2)cc1O |  |  | 32.6 µM [falling, single point]
Cc1ccc2oc(=O)n(CCOc3ccccc3)c2c1 | 18.9 |  | 0.326 µM [rising, full curve, poor fit]
CNC(=S)N(CCN(C)C)Cc1cc2cc3c(cc2[nH]c1=O)OCO3 | 2.7 |  | 
COc1ccc(S(=O)(=O)N2CCN(c3ncccn3)CC2)cc1[N+](=O)[O-] | 3.28 | 5.8 µM [falling, partial curve] | 
CCOC(=O)c1c(NC(=O)c2cccs2)sc(C(=O)N(C)C)c1C |  | 1.46 µM [rising, partial curve] | 20.6 µM [falling, single point]
Cc1ccnc(NC(=O)C2CCN(S(=O)(=O)c3ccc(Cl)c(C(F)(F)F)c3)CC2)c1 |  |  | 1.3 µM [falling, partial curve]
O=C(Cn1ccc2ccccc2c1=O)N1CCN(Cc2ccc3c(c2)OCO3)CC1 | -38.9 | 9.2 µM [falling, partial curve, poor fit] | 4.11 µM [falling, partial curve, poor fit]
CCC1(C)Cc2nc3[nH]c(=S)n(-c4ccccc4)c(=O)c3cc2CO1 (stereo not drawn) | -48.9 | 0.0731 µM [falling, full curve] | 0.82 µM [falling, full curve, poor fit]
CN1C(=O)N(CC(=O)N2CCN(c3ncccn3)CC2)C(=O)C12CCCCC2 | -77.1 | 20.6 µM [falling, single point] | 
O=C(CNCc1ccc(Cl)cc1)NCc1ccco1 | 17.5 |  | 7.31 µM [falling, single point]
O=C1CC(c2ccco2)Cc2nc(Nc3ccc(F)cc3)ncc21 (stereo not drawn) | -34.6 | 11.6 µM [falling, partial curve, poor fit] | 
Cc1c(NC(=O)CN2C(=O)NC(C)(c3ccc(OC(F)F)cc3)C2=O)c(=O)n(-c2ccccc2)n1C (stereo not drawn) | -33.7 | 4.61 µM [falling, full curve] | 
CCC(=S)/C=C1\Sc2ccccc2N1CCCS(=O)(=O)O | -13.3 |  | 
CCN1CCN(c2ncnc3scc(-c4ccc(C)c(C)c4)c23)CC1 | -2.86 |  | 
COc1ccccc1NC(=O)CSc1nnc(Cc2cc(=O)[nH]c(=O)[nH]2)n1-c1ccccc1 |  | 3.66 µM [falling, single point] | 
Cc1ccc(C(C)NC(=O)C2CCCC2)cc1C (stereo not drawn) | -18 |  | 29.1 µM [rising, single point]

Individual results from the entries so far:
CCOC(=O)c1c(NC(=O)c2cccs2)sc(C(=O)N(C)C)c1C – AC50 [2]: 20.6 µM [falling, single point]
CN1C(=O)N(CC(=O)N2CCN(c3ncccn3)CC2)C(=O)C12CCCCC2 – cell number change [%]: -77.1
